{"source": "patent US20200087703A1", "about": "“METABOLIC LABELING OF BACTERIAL TEICHOIC ACIDS CELL WALL” (priority 2017, published 2020)", "key": {"[1]": {"test_system": "S. pneumoniae teichoic acids (LTA)", "experiment": "NMR analysis of modified choline incorporation in extracted teichoic acids", "type": "cell-based, Streptococcus pneumoniae", "settings": "cultures grown in presence of propargyl-choline or normal choline"}, "[2]": {"test_system": "S. pneumoniae fixed cells", "experiment": "Detection of incorporated modified choline in fixed cells by Cu-catalysed click reaction with coumarin", "type": "cell-based, Streptococcus pneumoniae", "settings": "cells fixed prior to reaction; coumarin 1 mM, 16 h"}}, "note": "At least one compound was matched to its structure with a doubt left."}
{"smiles": "C#CC[N+](C)(C)CCO", "note": "[propargyl-choline]", "values": [{"measurement": "incorporation in LTA by NMR analysis", "setting": "[1]", "result": "has been integrated in LTA"}, {"measurement": "fluorescence on fixed cells after bioorthogonal reaction, compared with cells grown with normal choline", "setting": "[2]", "result": "Fluorescence was specifically detected"}]}
